From PubChem BioAssay AID256 (DTP/NCI, 2004) come the findings set out here.

The list shows only some results of the screen, not a fair sample: it gathers tests that were run many times, whatever their T/C, doses with no T/C, and many T/C values between a quarter and a half above the control. Other doses and runs of a compound stand elsewhere. T/C is the treated group as % of the vehicle group. Some doses have a count of surviving animals in place of a T/C: the source files T/C as zero there, which appears to mark a toxic dose or a test without result, not a measured value. Some doses without a T/C left all or most animals alive at the check, yet need not have been tolerated: the source hardly ever lists a survival T/C far under the control, and the zero likely stands for such cases as well. Survivors were counted at the toxicity check, usually on the fifth day, unless a day is given; later deaths do not show. Schedule codes are those of the source, read here as Q, the interval in days (D) or hours (H), X, the number of doses. Some entries were tested several times; the values are given in rising order. Some schedules carry Z or #; the key to these is not given. Some structures stand for samples that the source files as different forms (salt, stereo form or complex); doses refer to the form tested. Where survival is the endpoint, this PubChem deposit counts one and a half times the control or more as active, and values a quarter to a half above the control carry no call in these data; other NCI protocols may use other cut-offs. Some T/C values are followed by the survivors on the day toxicity was checked, most often the fifth; without a count, all were alive then.

This experiment deals with CD2F1 mice, L1210 leukemia ip, survival T/C. The experiment in a line: NCI In Vivo Anticancer Drug Screen. Data for tumor model L1210 Leukemia (intraperitoneal) in CD2F1 (CDF1) mice. To be noted: higher T/C = longer survival. The gist of the method:
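Antitumor effect is scored in animals hosting a serially transplanted tumor. Values compare compound-dosed animals against vehicle-only controls as a simple quotient.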

The mark [1] stands for this setting: T/C endpoint: mean survival time, dose: 100.0 mg/kg/injection, schedule: Q04DX002 (ip), vehicle: saline with Tween-80.
[2] abbreviates: T/C endpoint: mean survival time, dose: 150.0 mg/kg/injection, schedule: Q01DX001 (ip), vehicle: saline.
[3] abbreviates: T/C endpoint: mean survival time, dose: 300.0 mg/kg/injection, schedule: Q01DX001 (ip), vehicle: saline.
The mark [4] stands for this setting: T/C endpoint: mean survival time, dose: 200.0 mg/kg/injection, schedule: Q01DX001 (ip), vehicle: saline with Tween-80.
Where [5] appears, read: T/C endpoint: mean survival time, dose: 400.0 mg/kg/injection, schedule: Q01DX001 (ip), vehicle: saline with Tween-80.
[6] abbreviates: T/C endpoint: mean survival time, dose: 100.0 mg/kg/injection, schedule: Q01DX009 (ip), vehicle: saline with Tween-80.
Setting [7] is: T/C endpoint: mean survival time, dose: 300.0 mg/kg/injection, schedule: Q01DX001 (ip), vehicle: other.
Where [8] appears, read: T/C endpoint: mean survival time, dose: 200.0 mg/kg/injection, schedule: Q04DX003 (ip), vehicle: saline with Tween-80.
[9] abbreviates: T/C endpoint: mean survival time, dose: 400.0 mg/kg/injection, schedule: Q04DX003 (ip), vehicle: saline with Tween-80.

With `O=C(Oc1ccn(C2OC(CO)C(O)C2O)c(=O)c1)C12CC3CC(CC(C3)C1)C2` (stereo not given), the T/C (T/C endpoint: median survival time, dose: 10.0 mg/kg/injection, schedule: Q01DX009 (ip), vehicle: saline + Tween-80 + alcohol) was 137 % of control.
On to `C[N+](C)(Cc1ccccc1)C1c2ccccc2-c2ccc(Cl)cc21` (stereo not given), for which the survivor count by setting is: under setting [1], 0 of 3; (T/C endpoint: mean survival time, dose: 200.0 mg/kg/injection, schedule: Q04DX002 (ip), vehicle: saline with Tween-80) 0 of 3; (T/C endpoint: mean survival time, dose: 400.0 mg/kg/injection, schedule: Q04DX002 (ip), vehicle: saline with Tween-80) 0 of 3.
For `COc1csn[n+]1-c1ccc(C)cc1`, the survivor count reads like this: under setting [2], 2 of 6; under setting [3], 0 of 6.
`COc1cc(C2c3cc4c(cc3[C@@H](OC3OC5CO[C@@H](C)OC5C(O)C3O)[C@H]3COC(=O)C23)OCO4)cc(OC)c1OC` (stereo not given in full): the T/C is 131 % of control (T/C endpoint: median survival time, dose: 12.5 mg/kg/injection, schedule: Q01DX005 (ip), vehicle: saline); 133 % of control (T/C endpoint: median survival time, dose: 25.0 mg/kg/injection, schedule: Q01DX005 (ip), vehicle: saline); 146 % of control (T/C endpoint: median survival time, dose: 36.0 mg/kg/injection, schedule: Q01DX009 (ip), vehicle: saline).
Take `CC(=O)NNC(=O)c1ccccn1`: the survivor count (T/C endpoint: mean survival time, dose: 100.0 mg/kg/injection, schedule: Q#A X018 (ip), vehicle: water) was 1 of 6; the survivor count (T/C endpoint: mean survival time, dose: 200.0 mg/kg/injection, schedule: Q01DX009 (ip), vehicle: saline) was 6 of 10; the survivor count (T/C endpoint: mean survival time, dose: 200.0 mg/kg/injection, schedule: Q01DX009 (ip), vehicle: water) is 2 of 6; the survivor count (T/C endpoint: mean survival time, dose: 200.0 mg/kg/injection, schedule: Q#A X018 (ip), vehicle: water) is given as 0 of 6; the survivor count (T/C endpoint: mean survival time, dose: 300.0 mg/kg/injection, schedule: Q#A X018 (ip), vehicle: water) is given as 0 of 6; the survivor count (T/C endpoint: mean survival time, dose: 400.0 mg/kg/injection, schedule: Q01DX001 (ip), vehicle: water) is reported as 0 of 6. Besides, the survivor count is on record as 0 of 6 (T/C endpoint: mean survival time, dose: 400.0 mg/kg/injection, schedule: Q01DX009 (ip), vehicle: water); 0 of 6 (T/C endpoint: mean survival time, dose: 400.0 mg/kg/injection, schedule: Q01DX009 (sc), vehicle: water); 0 of 6 (T/C endpoint: mean survival time, dose: 600.0 mg/kg/injection, schedule: Q01DX001 (ip), vehicle: water); 0 of 6 (T/C endpoint: mean survival time, dose: 600.0 mg/kg/injection, schedule: Q01DX009 (ip), vehicle: water); 0 of 6 (T/C endpoint: mean survival time, dose: 600.0 mg/kg/injection, schedule: Q01DX009 (sc), vehicle: water).
Consider `CN(C)CCC(=O)c1cccc2ccccc12`, for which the survivor count under setting [4] is listed as 0 of 6 and the survivor count under setting [5] is 0 of 6.
Consider `COc1cc(OC)c(NC(=O)Nc2c(C)n(C)n(-c3ccccc3)c2=O)cc1Cl`, for which the survivor count under setting [6] is given as 3 of 3.
As to `CCN(CC)CCNc1ncnc(N)c1C(=C(C)C)c1ccc(Cl)cc1`, the survivor count under setting [5] is 2 of 6.
Take `C[n+]1cccc(C(=O)c2ccccc2)c1`: the survivor count was 3 of 6 (T/C endpoint: mean survival time, dose: 150.0 mg/kg/injection, schedule: Q01DX001 (ip), vehicle: other) and 0 of 6 under setting [7].
`CCOC1([N+](=O)[O-])c2ccccc2-c2nc3ccccc3cc21` (stereo not given): the survivor count by setting is: (T/C endpoint: mean survival time, dose: 100.0 mg/kg/injection, schedule: Q04DX003 (ip), vehicle: Klucel (hydroxypropylcellulose) (HPC)) 3 of 6; (T/C endpoint: mean survival time, dose: 400.0 mg/kg/injection, schedule: Q04DX003 (ip), vehicle: Klucel (hydroxypropylcellulose) (HPC)) 2 of 6.
Consider `Cc1nc2ccccc2nc1CBr`, for which the survivor count by setting is: (T/C endpoint: mean survival time, dose: 25.0 mg/kg/injection, schedule: Q01DX009 (ip), vehicle: acetone) 4 of 6; (T/C endpoint: mean survival time, dose: 50.0 mg/kg/injection, schedule: Q01DX009 (ip), vehicle: acetone) 3 of 6.
For `CCOC(=O)Cc1cnc(SC)nc1Nc1ccc(F)cc1`, the survivor count under setting [5] is on record as 1 of 6.
Take `Nc1ncnc2c1c(Cl)cn2C1OC(CO)C(O)C1O` (stereo not given): the survivor count is, setting by setting: (T/C endpoint: mean survival time, dose: 75.0 mg/kg/injection, schedule: Q01DX001 (ip), vehicle: saline) 1 of 6; under setting [2], 0 of 6; under setting [3], 0 of 6.
Turning to `COc1cc(N=Nc2ccccc2C(=O)O)ccc1N(CCCl)CCCl`, the survivor count was 3 of 3 (T/C endpoint: mean survival time, dose: 50.0 mg/kg/injection, schedule: Q01DX009 (ip), vehicle: Klucel (hydroxypropylcellulose) (HPC)); 0 of 3 (T/C endpoint: mean survival time, dose: 100.0 mg/kg/injection, schedule: Q01DX009 (ip), vehicle: Klucel (hydroxypropylcellulose) (HPC)); 0 of 3 (T/C endpoint: mean survival time, dose: 200.0 mg/kg/injection, schedule: Q01DX009 (ip), vehicle: Klucel (hydroxypropylcellulose) (HPC)).
For `COC(=O)C[As+](c1ccccc1)(c1ccccc1)c1ccccc1`, the survivor count runs as follows: under setting [7], 0 of 6; under setting [3], 0 of 6.
For the molecule `CN(C)N=Nc1ccccc1[N+](=O)[O-]`, the T/C was 143 % of control [5 of 6 alive] (T/C endpoint: mean survival time, dose: 119.0 mg/kg/injection, schedule: Q01DX009 (ip), vehicle: saline) and 138 % of control [4 of 6 alive] (T/C endpoint: mean survival time, dose: 267.0 mg/kg/injection, schedule: Q01DX001 (ip), vehicle: saline). For the same molecule, the survivor count is recorded as 3 of 6 (T/C endpoint: mean survival time, dose: 178.0 mg/kg/injection, schedule: Q01DX001 (ip), vehicle: saline); 4 of 6 (T/C endpoint: mean survival time, dose: 178.0 mg/kg/injection, schedule: Q01DX009 (ip), vehicle: saline); 4 of 6 (T/C endpoint: mean survival time, dose: 267.0 mg/kg/injection, schedule: Q01DX009 (ip), vehicle: saline); 3 of 6 (T/C endpoint: mean survival time, dose: 400.0 mg/kg/injection, schedule: Q01DX001 (ip), vehicle: saline).
Turning to `CC1CP(c2ccccc2)(c2ccccc2)(c2ccccc2)OC1(C(=O)c1ccccc1)c1ccccc1` (stereo not given), the survivor count was 3 of 6 (T/C endpoint: mean survival time, dose: 50.0 mg/kg/injection, schedule: Q01DX009 (ip), vehicle: saline with Tween-80); 1 of 6 under setting [6]; 0 of 6 under setting [8]; 0 of 6 under setting [9].
With `CCOC(=O)C1=C(C#N)C2(CCC(OCc3ccccc3)CC2)C(=O)O1` (stereo not given), the survivor count (T/C endpoint: mean survival time, dose: 400.0 mg/kg/injection, schedule: Q01DX009 (ip), vehicle: saline) is 2 of 6.
As for `Cc1ccc(S(=O)(=O)/C=C(\Cl)S(=O)(=O)C(C)(C)C)cc1`, the survivor count is 0 of 3 and 2 of 3 (T/C endpoint: mean survival time, dose: 100.0 mg/kg/injection, schedule: Q01DX001 (ip), vehicle: saline with Tween-80); 0 of 3 under setting [4]; 0 of 3 under setting [5].
In the case of `Cc1cc(F)ccc1NC(=O)Nc1ccc(F)cc1C`, under setting [1], the survivor count is listed as 3 of 3.
For the molecule `Cn1c(=O)c2c(ncn2C(C=O)OC(C=O)CO)n(C)c1=O` (stereo not given), the survivor count (T/C endpoint: mean survival time, dose: 200.0 mg/kg/injection, schedule: Q01DX005 (ip), vehicle: water) is given as 3 of 6.
As to `O=C1C=CC(=O)N1c1ccc(O)cc1`, the survivor count is, setting by setting: (T/C endpoint: mean survival time, dose: 10.0 mg/kg/injection, schedule: Q04DX003 (ip), vehicle: saline with Tween-80) 0 of 6; (T/C endpoint: mean survival time, dose: 20.0 mg/kg/injection, schedule: Q04DX003 (ip), vehicle: saline with Tween-80) 0 of 6; (T/C endpoint: mean survival time, dose: 100.0 mg/kg/injection, schedule: Q04DX003 (ip), vehicle: saline with Tween-80) 0 of 6; under setting [8], 0 of 6; under setting [9], 0 of 6.
On to `CCC1(O)C(=O)OCc2c1cc1n(c2=O)Cc2cc3cc(N)ccc3nc2-1` (stereo not given), for which the survivor count (T/C endpoint: median survival time, dose: 10.42 mg/kg/injection, schedule: Q01DX005 (ip), vehicle: saline) is 6 of 6 and the survivor count (T/C endpoint: median survival time, dose: 32.0 mg/kg/injection, schedule: Q04DX002 (ip), vehicle: saline) is 6 of 6.
On to `C[N+](C)(C)CC1CCCC1`, for which the survivor count (T/C endpoint: mean survival time, dose: 80.0 mg/kg/injection, schedule: Q01DX001 (ip), vehicle: saline) was 0 of 6.
Consider `Nc1ccc(S(=O)(=O)S(=O)(=O)c2ccc(N)cc2)cc1`, for which the survivor count under setting [5] was 6 of 6.
Consider `O=C(C=C(C(F)(F)F)C(F)(F)F)c1ccc(C(=O)C=C(C(F)(F)F)C(F)(F)F)cc1`, for which, under setting [9], the survivor count is listed as 0 of 6.
